Data: article PMC3093354
No constants are given. Whether binding was seen depends on the method and setting. A result given as binding can be weak or reduced; the word gives no strength. Tags and fused reporters may be left off the sequences shown.

Assays:
[1] = molecular target: LIN-54 (wild-type), Gal4 DNA-binding domain fusion (C. elegans); experiment: two-hybrid; yeast two-hybrid; LIN-54 (wild-type or G252E/A442T) as Gal4 DNA-binding domain bait, LIN-9 as Gal4 activation domain prey; permissive and selective media
[2] = molecular target: LIN-54^G252E/A442T, Gal4 DNA-binding domain fusion (C. elegans); experiment: as above

binding [1]: binds
binding [2]: binds
B1: LIN-9, Gal4 activation domain fusion (protein, UniProt P30630 1-644)
chain: MSSAVRSPRKKAASDTSDPDRTSSPYSLRETSKVPSRYRNEELYLSPSRSIKRTGSPKKSPAKRLNGGRDSPSVNSLTRNSSLTMLAKAALDYESSSCALEYIFQPKEERRPPRRALALSPPPAPSNDLLAKDLEMIEMHQNLVAGLDDLDNPANMTNEAVEHRDTQSFFNMFSTDQERSAMMKQFKTYKNQTSEDVSTFMRANIKKLYNLLRYKKARQWVMCEFFYSAIDEQIFKEENEFATIIRESFPNLKNWNLTRIEWRSIRKLLGKPRRCSKVFFEEERMYLEEKRMKIRSVYEGSYLNDPSIDLKDLPAKLPRPMVVGNRVFARIRNPYDGIYSGIIDAVIPKGFRIIFDKPDIPPTLVSDTEILLDGKLDLLSIAYFIEQANSKLPSGVRPFVAAVRDSSHPHLVRDVLVSRKIERSGGPLMGPNDERLNGKNAEMVGNFPLKFLVNLVKLTKLIDIKKGLIRQLNELNADAEIQNMTSDKYSKAFQEKYAKTIIDLEHVNQNIDINMNGIQDHHMYFSSNDISTSNMKPEAVRQMCSQQAGRFVEHCNQGLNVENVHALTLIQSLTAVLLQVRTMGTQKISAVDLQSLGDAISEIRTAIHPRNVAFFQDYVEVHMKQFHTIMLESGALAGTVSNRK
